Test results from PMC8651733.
Results are given in words; binding and its absence hold for the method and conditions named. Some entries that bind do so weakly or less than the wild type. For some of these results: Tags and fused reporters may be left off the sequences shown.

Key:
[1] = molecular target: FABP5, endogenous in mouse macrophages (mouse (endogenous in RAW264.7 and BMDMs)) (UniProt Q05816); experiment: SDS-PAGE under reducing or non-reducing conditions with immunoblot; lysates of cells exposed to H2O2 (indicated concentrations or 200 μM) for 15 min; immunoblot for FABP5
[2] = molecular target: FABP5, endogenous in mouse macrophages (mouse (endogenous in RAW264.7 and BMDMs)) (UniProt Q05816); experiment: immunoprecipitation with anti-GSH antibody, immunoblot for FABP5; cells exposed to H2O2 (200 μM) for 15 min, lysed in NP-40 lysis buffer with 20 mM N-ethylmaleimide; anti-glutathione antibody on Protein G magnetic beads overnight at 4 °C; DTT as negative control
[3] = molecular target: 3xFlag-FABP5 (pXJ40-3xFlag-FABP5), wild type (UniProt Q05816); experiment: SDS-PAGE under reducing or non-reducing conditions with immunoblot; lysates of cells exposed to H2O2 (indicated concentrations or 200 μM) for 15 min; immunoblot for FABP5
[4] = molecular target: 3xFlag-FABP5 (pXJ40-3xFlag-FABP5), wild type (UniProt Q05816); experiment: immunoprecipitation with anti-GSH antibody, immunoblot for FABP5; cells exposed to H2O2 (200 μM) for 15 min, lysed in NP-40 lysis buffer with 20 mM N-ethylmaleimide; anti-glutathione antibody on Protein G magnetic beads overnight at 4 °C; DTT as negative control

B1: FABP5, endogenous in mouse macrophages (protein, UniProt Q05816 1-135)
chain: MASLKDLEGKWRLMESHGFEEYMKELGVGLALRKMAAMAKPDCIITCDGNNITVKTESTVKTTVFSCNLGEKFDETTADGRKTETVCTFQDGALVQHQQWDGKESTITRKLKDGKMIVECVMNNATCTRVYEKVQ
- binding [1]: binds
- binding [2]: binds

B2: 3xFlag-FABP5 (pXJ40-3xFlag-FABP5), wild type (protein, UniProt Q05816 1-135)
chain: B1 chain
- binding [3]: binds
- binding [4]: binds
